Publication PMC7666158

By UniProt entry, the sequences of proteins in these tests, tags left out. Where a name states a change or a piece, a line headed by the entry shows the natural chain unless it says otherwise.
UniProt P45983: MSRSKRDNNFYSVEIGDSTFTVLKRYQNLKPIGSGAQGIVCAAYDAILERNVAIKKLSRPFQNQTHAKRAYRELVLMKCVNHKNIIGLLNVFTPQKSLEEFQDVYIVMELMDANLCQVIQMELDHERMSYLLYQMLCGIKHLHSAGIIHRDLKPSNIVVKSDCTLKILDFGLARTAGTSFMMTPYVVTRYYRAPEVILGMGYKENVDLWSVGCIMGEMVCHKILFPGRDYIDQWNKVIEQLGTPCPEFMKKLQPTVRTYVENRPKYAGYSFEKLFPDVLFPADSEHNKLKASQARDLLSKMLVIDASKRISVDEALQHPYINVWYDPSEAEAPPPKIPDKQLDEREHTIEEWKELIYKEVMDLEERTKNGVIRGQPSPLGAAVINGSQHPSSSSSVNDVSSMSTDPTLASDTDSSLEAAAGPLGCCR

Molecular target: JNK1-dc20 (JNK1 with the C-terminal 20 residues truncated) (human) (UniProt P45983)
Experiment: fluorescence polarisation; competitive: 50 nM CF-evJIP with JNK1 at ~60–80% complex, titrated with unlabeled competitor; 20 mM Tris pH 8.0, 100 mM NaCl, 0.05% Brij35P, 2 mM TCEP; 384-well plates; both purified

binding: binds
Binder: PPRRPKRPTSLDLPSTPSL (carboxyfluorescein (CF) on the N-terminus) [CF-evJIP]

These are yes or no findings as the source states them, for the method shown. A result given as binding can be weak or reduced; the word gives no strength.
